Record: PubChem BioAssay AID1508597 (Cure First, 2020)

- Purpose: 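Genes whose silencing sensitises or protects ovarian cancer cells against rucaparib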 (primary screen)
- System: human ovarian carcinoma lines grown from tumours: OCI-P5x (papillary serous) and OCI-C5x (clear cell)
- Reagent: siRNA pool against human genes, 1.25 pmol siRNA per well
- Timing: 72 h or 96 h, depending on the cell culture
- Challenge: rucaparib 20 µM (about IC30) or vehicle, present until read-out
- Rucaparib or vehicle: Vehicle
- Cell line: OCI-C5x (clear cell)
- Read-out: 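ATP luminescence measured at 72 or 96 h according to the culture, then normalised and expressed as percent viability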
- Direction: viability, normalised: higher = more viable cells remaining
- Active means: 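Active when normalised viability falls below 80 percent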
- Calls: active = viability under 80%; inactive = viability 80% or more
This is an unselected part of the about 2,100 reagents, in one setting of the screen. 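Calls flag viability under 80% in either arm, not effects specific to rucaparib; the reference for percent is not stated.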 Entries without a mark were called inactive. Not stated in the record: the 100% reference.

Gene | technical replicate | viability, normalised (%)
EPHB2 | 1 | 64.6 (active)
EPHB2 | 2 | 65.1 (active)
EPHB2 | 3 | 62.4 (active)
ENPP1 | 1 | 42.6 (active)
ENPP1 | 2 | 48.6 (active)
ENPP1 | 3 | 39.8 (active)
CHD1 | 1 | 48.5 (active)
CHD1 | 2 | 55.6 (active)
CHD1 | 3 | 55.3 (active)
EPHB3 | 1 | 82.2
EPHB3 | 2 | 48.8 (active)
EPHB3 | 3 | 56.3 (active)
PWWP2B | 1 | 44.5 (active)
PWWP2B | 2 | 37.7 (active)
PWWP2B | 3 | 48.3 (active)
AIPL1 | 1 | 44.6 (active)
AIPL1 | 2 | 45 (active)
AIPL1 | 3 | 56.2 (active)
MAU2 | 1 | 53.8 (active)
MAU2 | 2 | 58 (active)
MAU2 | 3 | 68 (active)
PDE4D | 1 | 32.2 (active)
PDE4D | 2 | 44.5 (active)
PDE4D | 3 | 30 (active)
GAK | 1 | 46.3 (active)
GAK | 2 | 54.6 (active)
GAK | 3 | 61.6 (active)
MAP3K15 | 1 | 64 (active)
MAP3K15 | 2 | 60 (active)
MAP3K15 | 3 | 44.5 (active)
SMUG1 | 1 | 46.4 (active)
SMUG1 | 2 | 46 (active)
SMUG1 | 3 | 40.6 (active)
IKBKE | 1 | 117
IKBKE | 2 | 40.6 (active)
IKBKE | 3 | 46.7 (active)

Continued (5 carried over from the part before).
Gene | technical replicate | viability, normalised (%)
SMUG1 | 2 | 46 (active)
SMUG1 | 3 | 40.6 (active)
IKBKE | 1 | 117
IKBKE | 2 | 40.6 (active)
IKBKE | 3 | 46.7 (active)
H4C8 | 1 | 40 (active)
H4C8 | 2 | 51.7 (active)
H4C8 | 3 | 64.8 (active)
PCDHB6 | 1 | 42.3 (active)
PCDHB6 | 2 | 44.1 (active)
PCDHB6 | 3 | 47 (active)
PARP9 | 1 | 39.4 (active)
PARP9 | 2 | 39.4 (active)
PARP9 | 3 | 27.6 (active)
CERKL | 1 | 42 (active)
CERKL | 2 | 42 (active)
CERKL | 3 | 37.8 (active)
EME2 | 1 | 55.1 (active)
EME2 | 2 | 54.9 (active)
EME2 | 3 | 62.9 (active)
TAF6L | 1 | 52.9 (active)
TAF6L | 2 | 66.3 (active)
TAF6L | 3 | 57.2 (active)
NDEL1 | 1 | 51.8 (active)
NDEL1 | 2 | 41.3 (active)
NDEL1 | 3 | 46.6 (active)
